Source: patent publication US20110207751A1, “HETEROCYCLIC COMPOUNDS AND USES AS ANTICANCER AGENTS” (priority 2010, published 2011)
pIC50: −log10 of the molar value.

System: MCF7 cells (human breast cancer cell line)
Experiment: Inhibition of cell proliferation, xCelligence cell index
Type: cell-based
Conditions: 72 hr post compound treatment, read-out: calculated IC50
From the text: The biological activity of compounds disclosed herein was monitored and profiled using the Real-Time Cell Electronic Sensing (RT-CES®) system from ACEA Biosciences, Inc. The RT-CES system utilizes cell-substrate impedance technology to monitor cellular behavior inside tissue culture wells in a microtiter plate format. The technology features in the integration of molecular and cell biology with microelectronics and is based on the electronic detection of biological assay process. […]
For measurement of cell-substrate or cell-electrode impedance using RT-CES technology, microelectrodes having appropriate geometries are fabricated onto the bottom surfaces of microtiter plate or similar device, facing into the wells. […] When there are changes to the biological status of the cells analogue electronic readout signals are measured automatically and in real time, and are converted to digital signals for processing and for analysis. In a RT-CES system, a cell index (arbitrary representation of change in impedance) is automatically derived and provided based on measured electrode impedance values. […]
To quantify cell status based on the measured cell-electrode impedance, a parameter termed Cell Index is derived. Cell Index is a quantitative measure of the status of the cells in an electrode-containing well. […]

- pIC50: 7.95
SMILES: CC(=O)O[C@H]1C(=O)[C@@]2(C)[C@H]([C@H](OC(=O)c3ccccc3)[C@]3(O)C[C@H](OC(=O)[C@H](O)[C@@H](NC(=O)c4ccccc4)c4ccccc4)C(C)=C1C3(C)C)[C@]1(OC(C)=O)CO[C@@H]1C[C@@H]2O [paclitaxel]
